Experimental data: paper PMC11434109, “VIK‐Mediated Auxin Signaling Regulates Lateral Root Development in Arabidopsis” (Advanced Science, 2024)

Protein sequences, listed by entry. Tags and fused reporters are not part of them. Lines headed by an entry give the natural chain unless they say otherwise; changes in a name come on top.
UniProt P43298: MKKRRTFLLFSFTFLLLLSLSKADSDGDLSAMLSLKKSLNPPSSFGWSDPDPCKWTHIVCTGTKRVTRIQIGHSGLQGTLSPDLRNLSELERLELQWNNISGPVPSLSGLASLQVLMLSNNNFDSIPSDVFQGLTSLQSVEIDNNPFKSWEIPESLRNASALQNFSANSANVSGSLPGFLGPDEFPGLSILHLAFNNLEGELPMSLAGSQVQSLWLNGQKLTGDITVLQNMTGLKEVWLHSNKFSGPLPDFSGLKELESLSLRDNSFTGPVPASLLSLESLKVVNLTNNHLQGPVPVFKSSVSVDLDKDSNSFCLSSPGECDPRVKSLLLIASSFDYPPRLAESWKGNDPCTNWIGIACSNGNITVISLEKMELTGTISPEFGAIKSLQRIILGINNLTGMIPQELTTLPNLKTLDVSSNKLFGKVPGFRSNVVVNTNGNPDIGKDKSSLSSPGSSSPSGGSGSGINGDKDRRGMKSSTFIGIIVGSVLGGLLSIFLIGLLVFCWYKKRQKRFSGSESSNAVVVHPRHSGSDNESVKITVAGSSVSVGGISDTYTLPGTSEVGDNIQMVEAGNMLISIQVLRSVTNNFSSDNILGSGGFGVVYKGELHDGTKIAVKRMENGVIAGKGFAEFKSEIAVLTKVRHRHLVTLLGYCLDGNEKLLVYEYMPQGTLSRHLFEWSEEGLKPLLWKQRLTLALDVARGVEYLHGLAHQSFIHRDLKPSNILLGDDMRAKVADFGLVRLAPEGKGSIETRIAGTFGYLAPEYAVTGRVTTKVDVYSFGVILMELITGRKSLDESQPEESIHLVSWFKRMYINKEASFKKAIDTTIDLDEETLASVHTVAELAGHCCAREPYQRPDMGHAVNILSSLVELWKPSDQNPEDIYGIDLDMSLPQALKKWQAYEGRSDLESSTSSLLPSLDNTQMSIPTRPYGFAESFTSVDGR

Target: T1, VH1-… Kinase (VIK) in pGBKT7 (BD-VIK) (Arabidopsis) (UniProt Q9XI87)
T1 sequence: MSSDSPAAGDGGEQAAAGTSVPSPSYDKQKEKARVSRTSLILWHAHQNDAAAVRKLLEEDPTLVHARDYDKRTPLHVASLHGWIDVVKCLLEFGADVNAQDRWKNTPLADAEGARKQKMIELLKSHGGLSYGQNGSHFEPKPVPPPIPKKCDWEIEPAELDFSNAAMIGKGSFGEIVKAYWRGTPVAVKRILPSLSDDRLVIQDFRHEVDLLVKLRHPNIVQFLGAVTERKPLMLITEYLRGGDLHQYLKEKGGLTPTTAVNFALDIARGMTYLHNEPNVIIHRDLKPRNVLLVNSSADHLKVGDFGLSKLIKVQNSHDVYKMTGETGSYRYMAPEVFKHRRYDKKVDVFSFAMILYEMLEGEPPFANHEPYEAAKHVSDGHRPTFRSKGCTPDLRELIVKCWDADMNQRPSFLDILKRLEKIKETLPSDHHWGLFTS
Assay: two-hybrid; pGADT7 (AD) and pGBKT7 (BD) fusions in AH109 yeast; growth on SD/-Leu/-Trp/-His or SD/-Leu/-Trp/-His/-Ade; autoactivation inhibited by 3-AT (25 mM for VIK-ERF13)

Substance: TMK1 kinase domain in pGADT7 (AD-TMK1 kinase domain) (from UniProt P43298) (domain or fragment)
- binding: binds

No constants are given. Whether binding was seen depends on the method and setting. Binding calls can cover weak binding; strength is not graded here. Where a sequence is shown, tags or fusion partners need not be part of it.
